Assay results published in PMC10896983.

Target: murine iRhom2 N-terminal deletion nd197 (HA tag) (murine)
Test: co-IP; HEK293 stably expressing HA-tagged iRhom2 variants as bait; cleared lysate on anti-HA magnetic beads for 90 min, five washes with lysis buffer (50 mM Tris, 2 mM CaCl2, 137 mM NaCl, 2 mM EDTA, 10 mM 1,10-phenanthroline, pH 7.5); endogenous prey by immunoblot and densitometry; in some panels cells treated with NH4Cl or bafilomycin for 8 h or 16 h

binding: binds
B1: FRMD8 (endogenous, HEK293) (protein, UniProt Q9BZ67 1-464)
chain: MDGTEGSAGQPGPAERSHRSSVSSVGARAADVLVYLADDTVVPLAVENLPSLSAHELHRAVREVLQLPDIALDVFALWLVSPLLEVQLKPKHQPYKLGRQWPELLLRFTSAPDDDVAMDEPFLQFRRNVFFPKRRELQIHDEEVLRLLYEEAKGNVLAARYPCDVEDCEALGALVCRVQLGPYQPGRPAACDLREKLDSFLPAHLCKRGQSLFAALRGRGARAGPGEQGLLNAYRQVQEVSSDGGCEAALGTHYRAYLLKCHELPFYGCAFFHGEVDKPAQGFLHRGGRKPVSVAISLEGVHVIDSREKHVLLGLRFQELSWDHTSPEEEEPILWLEFDGDSEGTPVNKLLKIYSKQAELMSSLIEYCIELSQAAEPAGPQDSATGSPSDPSSSLAPVQRPKLRRQGSVVSSRIQHLSTIDYVEDGKGIRRVKPKRTTSFFSRQLSLGQGSYTVVQPGDSLEQG

These are yes or no findings as the source states them, for the method shown. In cells and extracts the contact can be indirect. Binding calls can cover weak binding; strength is not graded here.
